Test results: PubChem BioAssay AID588456 (National Center for Advancing Translational Sciences (NCATS), 2011)
In all, about 390,000 compounds went through this assay and about 55 (0.01%) were called active. These results got no clear call from the source, so the numbers are uncertain. The call rests on the fitted dose curve; in most records, active means well fitted inhibition curve with a large enough effect; inconclusive means small, poorly fitted or top-dose-only effect; inactive means no such curve, though single readings can be large or run the other way.

The chains behind the UniProt entries cited, without tags or fusion partners.
UniProt O89049, whole entry: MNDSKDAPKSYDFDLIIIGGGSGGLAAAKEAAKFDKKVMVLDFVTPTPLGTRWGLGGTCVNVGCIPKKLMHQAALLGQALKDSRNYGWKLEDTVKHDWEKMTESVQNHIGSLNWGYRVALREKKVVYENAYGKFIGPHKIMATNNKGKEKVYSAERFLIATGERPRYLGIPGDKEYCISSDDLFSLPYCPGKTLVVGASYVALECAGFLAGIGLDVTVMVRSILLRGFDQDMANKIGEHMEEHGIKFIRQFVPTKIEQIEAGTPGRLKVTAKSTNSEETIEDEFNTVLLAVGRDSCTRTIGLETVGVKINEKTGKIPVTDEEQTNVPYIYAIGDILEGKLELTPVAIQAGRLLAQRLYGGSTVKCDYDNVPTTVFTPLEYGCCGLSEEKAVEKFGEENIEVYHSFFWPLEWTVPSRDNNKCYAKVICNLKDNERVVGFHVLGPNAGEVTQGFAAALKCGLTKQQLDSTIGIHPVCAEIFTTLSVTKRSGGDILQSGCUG

molecular target: Thioredoxin reductase 1, cytoplasmic (Rattus norvegicus) (UniProt O89049); test: qHTS Assay for Substrates of Mammalian Selenoprotein Thioredoxin Reductase 1 (TrxR1): qHTS; conditions: purified TrxR1 substrate turnover, NADPH consumption readout

Row | SMILES | Potency
1 | O=[N+]([O-])c1cc([N+](=O)[O-])c(-n2nnc3ccccc32)c([N+](=O)[O-])c1 | inconclusive: 89.1 µM
